Experimental data as given in publication PMC12325526.
No constants are given. Whether binding was seen depends on the method and setting. In cells and extracts the contact can be indirect. These calls come from enrichment with a bait or labelling near it, and not all partners need be listed. For some assays here: A no says only that the protein was not detected with the bait.

By UniProt entry, the sequences of proteins in these tests, tags left out. Residues count along the entry.
UniProt O15123, residues 19-496: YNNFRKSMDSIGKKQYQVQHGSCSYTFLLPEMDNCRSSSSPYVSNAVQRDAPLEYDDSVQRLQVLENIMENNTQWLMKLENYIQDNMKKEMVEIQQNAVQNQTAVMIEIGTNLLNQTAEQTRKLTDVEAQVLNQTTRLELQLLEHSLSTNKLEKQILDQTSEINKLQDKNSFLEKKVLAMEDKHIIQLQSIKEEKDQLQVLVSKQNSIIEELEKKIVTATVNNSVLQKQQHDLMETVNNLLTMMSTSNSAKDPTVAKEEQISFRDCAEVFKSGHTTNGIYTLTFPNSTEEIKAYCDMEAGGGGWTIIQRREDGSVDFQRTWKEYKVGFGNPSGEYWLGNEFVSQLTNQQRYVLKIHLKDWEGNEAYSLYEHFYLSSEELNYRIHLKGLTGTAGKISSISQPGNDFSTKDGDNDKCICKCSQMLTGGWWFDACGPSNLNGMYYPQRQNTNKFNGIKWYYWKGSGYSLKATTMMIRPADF
UniProt P21802, residues 22-821: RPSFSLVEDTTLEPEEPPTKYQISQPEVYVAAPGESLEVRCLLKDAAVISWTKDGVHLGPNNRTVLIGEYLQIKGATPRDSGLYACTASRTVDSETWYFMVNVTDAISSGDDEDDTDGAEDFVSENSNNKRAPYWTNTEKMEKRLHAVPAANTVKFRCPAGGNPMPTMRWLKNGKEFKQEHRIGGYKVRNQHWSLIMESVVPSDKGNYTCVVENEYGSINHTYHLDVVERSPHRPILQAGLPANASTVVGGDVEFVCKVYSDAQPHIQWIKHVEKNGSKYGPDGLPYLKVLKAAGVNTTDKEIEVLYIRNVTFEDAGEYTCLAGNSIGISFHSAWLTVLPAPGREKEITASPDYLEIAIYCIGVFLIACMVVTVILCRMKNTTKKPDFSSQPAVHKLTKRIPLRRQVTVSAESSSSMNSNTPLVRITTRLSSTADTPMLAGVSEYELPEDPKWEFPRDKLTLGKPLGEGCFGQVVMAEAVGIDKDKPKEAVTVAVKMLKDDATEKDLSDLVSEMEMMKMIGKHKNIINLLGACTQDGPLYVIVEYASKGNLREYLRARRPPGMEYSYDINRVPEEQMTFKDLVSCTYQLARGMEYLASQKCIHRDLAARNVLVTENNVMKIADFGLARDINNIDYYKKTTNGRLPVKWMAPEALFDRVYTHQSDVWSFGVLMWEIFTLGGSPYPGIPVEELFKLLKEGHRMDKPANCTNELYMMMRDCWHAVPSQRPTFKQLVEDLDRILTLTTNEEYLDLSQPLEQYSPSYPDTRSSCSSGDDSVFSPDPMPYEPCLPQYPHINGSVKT

What was measured:
[1] = target: recombinant Angiopoietin-2 (Ang2), C-terminal His-tag (human) (UniProt O15123); assay: condition: only after 6 hours incubation of HUVEC with Ang2; proximity labelling; as a1 but HUVEC incubated 6 hours with His-tag Ang2 (100 ng/ml); only the target purified
[2] = target: recombinant Angiopoietin-2 (Ang2), C-terminal His-tag (human) (UniProt O15123); assay: proximity labelling; starved HUVEC incubated 5 minutes with His-tag Ang2 (100 ng/ml); crosslinking (2 mM DSP), anti-His-tag antibody, HRP-conjugated secondary antibody, hydrogen peroxide and phenol biotin, streptavidin-coated Dynabeads, LC-MS-MS; only the target purified

FGFR2, endogenous in HUVEC (from UniProt P21802 22-821) (receptor)
binding [1]: no binding | binding [2]: binds
